{"source": "paper PMC4513130", "about": "“Neuronal Calcium Sensor-1 Binds the D2 Dopamine Receptor and G-protein-coupled Receptor Kinase 1 (GRK1) Peptides Using Different Modes of Interactions” (The Journal of Biological Chemistry, 2015)", "system": "NCS-1ΔCT", "assay": "Crystal structure of NCS-1ΔCT dimer", "parameters": "species or system rat", "conditions": "PDB 4YRU", "data": [{"substance": "NCS-1ΔCT: C-terminal truncated mutant of NCS-1, residues Ser-178–Val-190 deleted", "values": [{"measurement": "area buried by protein-protein interface of homodimer", "value": "about 1854 Å"}, {"measurement": "oligomeric state in crystal", "value": "symmetrical homodimer"}]}]}
